Target: cPXR (Cyprinus carpio, UniProt A0A1P8P0E9)
Assay: carp PXR (cPXR) luciferase transactivation reporter assay, pGL4.24-6xPXRE reporter, COS-7 cells
Protocol: For this, cDNA was reverse transcribed from 1 μg of carp liver total RNA as described above and amplified using the Advantage 2 DNA polymerase mix (Clontech) according to the manufacturer's instructions. The resulting PCR product was purified and sequenced to confirm the full sequence length and sub-cloned into pGEM-T Easy vector (Promega) following the manufacturer's recommendations. Plasmid DNA was isolated using the Wizard Plus SV minipreps DNA Purification system (Promega) according to manufacturer's instructions. […]
For transfection assays, cells were seeded in 24-well plates at 5 × 10^4 cells well^− 1 in phenol-red free DMEM (supplemented with 10% charcoal/dextran-treated foetal bovine serum (Hyclone). After 24 h, the cells were transiently transfected with 200 ng of either pcDNA3.1(+)/cPXR or pcDNA3.1(+)/hPXR, 400 ng of reporter construct (either MMTV/luc2/pGL4 (Promega) or pGL4.24-6xPXRE) and 100 ng of pRL-TK (driving the Renilla reniformis luciferase gene as an internal control to normalise for variations in transfection efficiency) using Fugene HD transfection reagent (Promega) in serum-free medium according to the manufacturer's protocol. […] Forty-eight hours after transfection, cells were lysed and the luciferase activities of the cells were measured by a chemiluminescence assay with Dual-Luciferase Reporter Assay System (Promega) according to the manufacturer's instructions. […]

Chains of the proteins cited; added tags and fusions are not shown.
UniProt A0A1P8P0E9, entry or part of it: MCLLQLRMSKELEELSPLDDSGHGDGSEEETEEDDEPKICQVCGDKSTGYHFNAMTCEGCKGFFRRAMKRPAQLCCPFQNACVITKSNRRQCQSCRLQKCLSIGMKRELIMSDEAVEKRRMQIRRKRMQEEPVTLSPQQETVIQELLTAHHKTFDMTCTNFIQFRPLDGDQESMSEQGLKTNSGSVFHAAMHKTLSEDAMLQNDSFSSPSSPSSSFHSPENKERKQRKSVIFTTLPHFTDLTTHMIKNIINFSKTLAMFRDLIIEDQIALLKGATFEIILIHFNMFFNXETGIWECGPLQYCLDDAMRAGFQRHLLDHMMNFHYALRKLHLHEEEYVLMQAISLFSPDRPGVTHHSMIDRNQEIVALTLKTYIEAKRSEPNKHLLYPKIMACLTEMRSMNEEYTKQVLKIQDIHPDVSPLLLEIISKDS

SMILES | EC50
Clc1ccccc1C(c1ccccc1)(c1ccccc1)n1ccnc1 [CTZ, clotrimazole] | 24 nM
Clc1ccc(COC(Cn2ccnc2)c2ccc(Cl)cc2Cl)c(Cl)c1 (centres unmarked) [MCZ, miconazole] | 315 nM

Reference: paper PMC5484788, “Development of a common carp (Cyprinus carpio) pregnane X receptor (cPXR) transactivation reporter assay and its activation by azole fungicides and pharmaceutical chemicals” (Toxicology in Vitro, 2017)
